This data set is described as follows: Full RFB with BTMAP-Fc posolyte, galvanostatic cycling, polarization, post-mortem CV. Particulars: for capacity maintained (of first/initial capacity): after 100 cycles.

Molecules are shown by their SMILES. A value given as a limit tells only on which side of the number the result lay.

As for `C[N+](C)(C)CCC[c-]1cccc1.C[N+](C)(C)CCC[c-]1cccc1.O=S(=O)([N-]S(=O)(=O)C(F)(F)F)C(F)(F)F.O=S(=O)([N-]S(=O)(=O)C(F)(F)F)C(F)(F)F.[Fe+2]` [BTMAP-Fc·2TFSI^−, 1,1′-bis[3-(trimethylammonio)propyl]ferrocene dibis-trifluoromethanesulfonimidate, reference compound], the “anodic CV wave intensity in the posolyte solution relative to the negolyte solution” value (BTP^+ full RFB, post-mortem CV after 335 cycles) worked out at 2.3 times.
In the case of `C[n+]1ccc(-c2nc3ccccc3s2)cc1` [BTP^+], the “capacity maintained (of first/initial capacity)” value (18 mA cm^−2) is roughly 60%. The capacity maintained (after 220 cycles) is recorded as roughly 50% and the capacity maintained (after 335 cycles) is roughly 50%.
Regarding `C[N+](C)(C)CCC[n+]1ccc(-c2nc3ccccc3s2)cc1` [TMAP-BTP^2+], where the note is “4.5 mA/cm^2”, the CE is listed as greater than 98.96% and the “energy efficiency (EE)” value was roughly 86%. This compound also came in with a capacity decrease (27 mA cm^−2 compared to 4.5 mA cm^−2) of 14%. Also, the “maximum power density (MPD)” value (90% SOC) stood at 17.8 mW/cm^2. Where the note is “500 cycles”, the “average CE” value was “exceeding 99.80%”. Also, the “capacity-fading rate per cycle” value (500 cycles, full cell) is 0.08%. For the setting “18 mA cm^−2”, the “capacity maintained (of first/initial capacity)” value is listed as 89.8%. Further, under “after 500 cycles”, the “loss of the negolyte molecule by crossover” value is listed as “about 26.7%” and the “loss of total capacity” value was roughly 34.3%. Also, the “capacity maintained (of first charging capacity)” value (after 500 cycles, 18 mA cm^−2) was 65.7%. The compound further returned a first charging capacity (full RFB 0.1 M negolyte, 4.5 mA/cm^2) of 2.50 Ah/L. For the same compound, the first charging capacity (full RFB, 18 mA cm^−2) is recorded as 2.57 Ah L^−1. Under “post-mortem CV after 500 cycles”, the “c1 current density on the negolyte side relative to the posolyte side” value is roughly 2.75 times.

(Values after US12643893B2, “Heteroaryl-pyridinium compound and redox flow battery comprising the same” (Korea Advanced Institute of Science and Technology, priority 2021, dated 2026).)
